# Percent effect of library compounds

By UniProt entry, the sequences of proteins in these tests, tags left out. Residues count along the entry.
UniProt P9WPC5, whole entry: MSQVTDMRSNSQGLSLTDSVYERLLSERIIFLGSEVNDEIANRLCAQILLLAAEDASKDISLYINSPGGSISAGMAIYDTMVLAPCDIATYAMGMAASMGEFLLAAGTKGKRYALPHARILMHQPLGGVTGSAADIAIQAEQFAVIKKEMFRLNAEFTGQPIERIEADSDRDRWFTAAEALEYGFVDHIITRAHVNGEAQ
UniProt P9WPC3, whole entry partner: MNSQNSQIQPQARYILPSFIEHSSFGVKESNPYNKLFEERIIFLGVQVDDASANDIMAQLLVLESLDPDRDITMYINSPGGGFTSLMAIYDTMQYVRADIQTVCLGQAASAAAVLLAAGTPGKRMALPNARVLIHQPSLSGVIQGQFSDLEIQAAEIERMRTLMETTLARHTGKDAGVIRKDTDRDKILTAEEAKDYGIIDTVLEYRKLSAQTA
UniProt A4I591, 1-473: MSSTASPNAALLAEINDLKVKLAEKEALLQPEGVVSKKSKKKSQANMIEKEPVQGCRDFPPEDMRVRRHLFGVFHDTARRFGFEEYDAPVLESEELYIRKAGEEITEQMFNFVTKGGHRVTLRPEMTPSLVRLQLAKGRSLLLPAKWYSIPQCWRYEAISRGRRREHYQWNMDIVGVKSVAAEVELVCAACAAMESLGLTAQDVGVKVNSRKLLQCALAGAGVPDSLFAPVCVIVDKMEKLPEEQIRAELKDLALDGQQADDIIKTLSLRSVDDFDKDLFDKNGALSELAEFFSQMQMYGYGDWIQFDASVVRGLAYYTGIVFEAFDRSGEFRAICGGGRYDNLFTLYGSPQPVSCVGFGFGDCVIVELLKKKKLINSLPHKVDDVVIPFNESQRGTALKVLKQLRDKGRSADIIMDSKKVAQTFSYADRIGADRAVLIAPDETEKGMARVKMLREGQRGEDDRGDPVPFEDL

A: 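ClpP1P2, Mycobacterium tuberculosis (UniProt P9WPC5 and UniProt P9WPC3). Protease assay of ClpP1P2, read by the AMC dye that it sets free. Tested at 50 µM. Direction is inferred from only a few compounds that gave an IC50; most scored high, so higher reads as stronger inhibition. Most other retested compounds had strongly negative values. Size under these conditions: about 69,000 compounds, about 10 of them at 50% or above in at least one test.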
B: 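Histidine-tRNA ligase, Leishmania infantum (UniProt A4I591). Enzyme assay of histidyl-tRNA synthetase; the read-out is not stated. Concentration: 30 µM. The record gives no direction; compounds that gave an IC50 in retests scored well above the rest, so higher reads as stronger inhibition. The assay is labelled LdHisRS but filed under L. infantum. Of about 69,000 compounds tested this way, about 410 (0.6%) reached 50% or more in at least one test.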

The filed quantity is “Percent Effect” (%).
The record does not define 0% and 100%; most values in the screen are far below 50% and negative numbers occur (in some assays of this library far below -100).
Compounds were drawn at random from those tested, without regard to their results.

SMILES,A,B
COCCn1cnnc1CCNc1cc(C)nc2ccnn12,-0.7689%,12.86%
CCc1nc(CSC2CCCN(c3cnn(C)c3)C2=O)cs1 (stereo unspecified),-12.56%,12.5%
Cc1cc(CN(C)CCC(O)c2ccccc2)nn1C (stereo unspecified),-8.193%,5.6%
CN(C)S(=O)(=O)N1CC[C@]2(O)CCN(c3ncccn3)C[C@@H]2C1,3.709%,18%
NCC1CN(Cc2cn(CCC(N)=O)c3ccccc23)CCO1 (stereo unspecified),-4.177%,8.547%
CCNC(=O)N1CCCC(c2noc(CC)n2)C1 (stereo unspecified),5.12%,10.67%
CCOc1ncccc1C(=O)NC1CC(=O)N(CC(F)(F)F)C1 (stereo unspecified),2.821%,8.333%
CCOCCN1CCC(c2cncc(C)n2)CC1,-7.242%,5.755%
CN1CCCCC1CC(=O)Nc1ccc2ncn(C)c2c1 (stereo unspecified),11.34%,2.899%
O=C1CC(c2ccncc2)c2c(c(C(=O)O)cn2-c2ccccc2)N1 (stereo unspecified),-15.39%,27.17%
O=C(CNC(=O)c1cnc2ccccc2c1O)NCCCn1ccnc1,9.402%,5.479%
CC(=O)NCc1cc2n(n1)CCN(Cc1ccccc1OC(F)(F)F)C2,-7.121%,8.434%
CC1CN(C(=O)c2cc[nH]c(=O)c2)c2ccccc21 (stereo unspecified),-0.7663%,13.33%
O=C(NCCCn1cccn1)C1(c2ccc(F)cc2)CC1,1.234%,23.08%
Cc1ccc(NC(=O)NC(C)c2nc[nH]n2)s1 (stereo unspecified),-7.318%,18.87%
c1cnc(-c2noc(C3CN(Cc4ccsc4)C3)n2)cn1,-2.083%,15.65%
Cc1ccc(CN2CCc3ncnc(-c4ccncc4)c3CC2)o1,-13.71%,12.5%
CCOCC(=O)N1CC[C@@H]2O[C@@H](C)C[C@H]2C1,6.155%,24%
CN(Cc1ccccn1)C(=O)[C@H]1CO[C@H]2CCN(CC3CC3)C[C@H]2C1,-5.692%,20.72%
COc1ccccc1CC(=O)N1CC[C@@]2(CCCO2)[C@@H](OC)C1,-1.609%,-14.29%
COCCOCc1cccc(NC(=O)N2CCCC2c2ccncc2)c1 (stereo unspecified),1.824%,16%
CN1C(=O)C(c2cccnc2)CC12CCN(C(=O)c1ccc[nH]1)CC2 (stereo unspecified),0.04245%,1.37%
O=C1N(CC2CC2)CCC12CCN(Cc1ccoc1)CC2,7.526%,26.61%
COCC(NC(=O)c1ccc(O)nc1)c1ccc(C)o1 (stereo unspecified),1.702%,11.97%
CCN1CCCC(C)(C(=O)NCc2nccn2Cc2ccccc2)C1 (stereo unspecified),-10.82%,6.122%
CCNC(=O)CN1CCC(c2cc(OC)cc(OC)c2)C1 (stereo unspecified),-8.612%,0.8772%
CC(C)(C)C(=O)NCC(=O)Nc1cccnc1,4.311%,16.85%
CNC(=O)c1n[nH]c2c1C(c1cccc3nsnc13)CC(=O)N2 (stereo unspecified),-3.872%,20.51%
CC(=O)c1ccc(C(=O)NCc2cccnc2N2CCCC(O)C2)s1 (stereo unspecified),-7.765%,6.024%
O=C(c1ccoc1)N1CC[C@@H](N2CCOCC2)[C@@H]1Cc1ccccc1,4.632%,7.273%
c1cncc(COCC2CNCc3nccn3C2)c1 (stereo unspecified),5.272%,13.79%
Cc1cc(-c2nccs2)nc(C2CCN(Cc3cccs3)CC2)n1,-16.76%,11.43%
CCOCC(O)CN1CCN(C(=O)c2ccc(N(C)C)nn2)CC1 (stereo unspecified),-15.64%,10.71%
COc1ccc(OC)c(-n2c(COC(C)C)n[nH]c2=O)c1,-9.014%,3.419%
Cc1cc(C2CCCN(C(=O)COc3cc(C)on3)C2)n[nH]1 (stereo unspecified),5.367%,6.897%
N[C@H]1CN(C(=O)CCC(F)(F)F)C[C@@H]1c1ccccc1,-13.49%,0%
CCCS(=O)(=O)N1CCC2(CC1)CC(Nc1ncccn1)CO2 (stereo unspecified),-3.064%,17.28%
O=S(=O)(CCN1CCCC1Cn1cccn1)c1ccccc1 (stereo unspecified),-9.266%,11.96%
NCc1ccc(Oc2cccc(Cl)c2Cl)nc1,-1.52%,-6.667%
Cn1c(NCC(=O)N2CCCC2)c(C#N)c(=O)n(C)c1=O,6.61%,32.88%
CN(CC1CC1)S(=O)(=O)c1ccc(C(F)(F)F)cc1C#N,4.527%,14.53%
CC(Cn1cccn1)NC(=O)NCc1ccoc1 (stereo unspecified),-55.19%,9.735%
CCC(C)c1noc(C2CCN(C(=O)Cn3nc(C)cc3C)CC2)n1 (stereo unspecified),0.9801%,12.07%
CCN(CC)C(=O)Cn1cc(C(=O)NCCc2scnc2C)nn1,-5.054%,5.333%
Cn1cc(-c2nc(C(=O)N3CCCC3Cn3cccn3)cs2)cn1 (stereo unspecified),-25.85%,8.036%
c1ccc(CN2CCCn3nnc(CNc4ncccn4)c3C2)nc1,1.178%,24.69%

Data taken from ChEMBL document CHEMBL3988442, “University of Dundee, Small-Polar-MMV Screening Library” (2021).